Among the data in PubChem BioAssay AID1508600 (Functional Genomics Laboratory (NCATS/FGL), 2020) are z-score values, retold here.

Among all 53,000 sequences or so, about 3,700 (7%) were called active.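 The calls were made as follows: active = gene knockdowns whose robust z-score for IL-1 alpha signal is at least 2 or at most -2, so actives lie on both sides; inactive = the rest.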 The list shows a part of the results.

This test in a line: Components of the Cytosolic LPS Sensing Pathway: Gene Identification via Genome-wide siRNA Screen.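 Also: robust z of the log signal after scaling to non-targeting control siRNA wells of the plate.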 The conditions noted are these: RAW264.7 macrophages, IL-1a HTRF, actives lie on both sides, screened at 100 nM (by protocol), cells primed 5 h with Pam3CSK4 first. The procedure, abridged: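 IL-1a HTRF of supernatants after 24 hour LipidA transfection of Pam3CSK4-primed (5 hours) RAW264.7 cells, 48h post-siRNA transfection (100 nM). Scores: percent of plate negative-control median, then log-based robust z-score.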
Turning to GGACACUUCCAAGUAUUGGTT against Tns1, the z-score was active: -2.11.
Turning to GGUGCAACAAUAUGAGACATT against Prom2, the z-score was inactive: 0.515.
With CCAAACUUAAGCCUAUUCUTT against Mme, the z-score is inactive: 1.32.
For GGUUGCUCGGUUAGACUGUTT against Ipo11, the z-score was inactive: 0.362.
Turning to GGAGGAUAGUACCAAGCAATT against Timm21, the z-score is inactive: 0.283.
Regarding GCAAAGGAUUUGACUUCUATT against Vwa3b, the z-score was inactive: -0.258.
As to GGUCCUCAGAAUGUAACAGTT against Igsf5, the z-score is inactive: -1.19.
Turning to GGAUGUUUGGACCAAUCACTT against Iba57, the z-score is inactive: -0.962.
As for GCUAUGAAAGGGCGAUUUGTT against Optn, the z-score was inactive: -0.17.
As for GGAAAUUCACUUCAAUGAUTT against Dennd4a, the figure is inactive: 0.12; as for GCAUCUCUCUAAUAGCCUUTT against Nop16, inactive: 1.24; as for GGAUUACGCAGAUUCCAUUTT against Rab22a, inactive: -0.474.
For the sequence GGCAUCACUGGUAAACAUUTT against Frzb, the z-score was inactive: -0.196.
As to GGAUGGAUGAUCCAUACUGTT against Sell, the z-score was inactive: -0.0321.
As for GGAGUUCUUUCUGAUAUCATT against Net1, the figure is inactive: -1.24; as for GGGAGACUGGUUCUUGAAGTT against Slc38a5, inactive: 1.81.
GCAUGACAGUCAACACAAGTT against Slc35f6: the z-score was active: 2.04.
Regarding GCUUGUACUCUUUGGCCGGTT against Rabac1, the z-score is inactive: 1.68.
In the case of GGUACCUCUGGAAAAUGAGTT against Rfng, the z-score is inactive: 1.44.
Under GCUUUUUGUGAAACUGGCCTT against Pstpip2 stands inactive: 0.191; under GGCUACCAGUUUAUCCACATT against Has3, inactive: -1.55; under GGGAAUGUAUCCACAUCAATT against Btbd35f1, inactive: -0.0841.
With GGCCAUUGCCAAGCACAAUTT against Trim35, the z-score was inactive: 0.847.
As for GGAGAAGUGGGUUAAGAAUTT against Ccl12, the z-score was inactive: -1.08.
For CCAAUUGCUCUCCAUGAAATT against Coro1c, the z-score was inactive: 0.331.
Turning to CGAGACAGUUUCCAUAGCGTT against Spen, the z-score is inactive: -0.271.
As for CCACAUUAGGUGGAUAGGATT against E2f6, the z-score is inactive: -0.534.
As for GGCAUUUCAUAGAGAGAAUTT against LTO1, the figure is active: -2.21.
As for GGCUACGUAGAUGUUGUAATT against Ankrd17, the z-score is inactive: -0.627.
CGGGACCUUUGUAACAGCUTT against Sirt3: the z-score is inactive: 0.546.
